Measurements from patent publication US20220177589A1.
Results are given in words; binding and its absence hold for the method and conditions named. Some binding calls cover weakened binding; strength is not graded here.

B1: 6.2 (antibody, IgG1, V domains shown)
VH: EVKLVESGGGLVKPGGSLKLSCAASGFTLSSYGMSWVRQIPEKRLEWVASIRSDGNTYYPDSVKGRFIISRDNARNILYLQMSSLRSEDTAMYYCTRGGYYGSSPYYWGQGTTLTVSS
VL: DIVMSQSPSSLPVSVGEKISMTCKSSQSLLYSSNQKNYLAWYQQKPGQSPKLLIYWASTRDSGVPDRFIGSGSGTDFTLTINSVKAEDLAVYYCQQYYNYLTFGAGTKLELK
B2: 831 (antibody, V domains shown)
VH: DVQLQESGPDLVKPSQSLSVTCTVTGYSITSGYSWHWIRQFPGNKLEWMGYIHYSGSTNYNPSLKSRISITRDTSKNQFFLQLSSVTTEDTATYYCASGPHRYDGVWFAYWGQGTLVTVSS
VL: EIVLTQSPTTMAASPGEKITITCSASSSISSNYLHWYQQKPGFSPKLLIYRTSNLASGVPARFSGSGSGTSYSLTIGTMEAEDVATYYCQQGTNIPLTFGAGTKLEIK
B3: 7A1 (antibody, IgG1, V domains shown)
VH: QVQLQQSGPELVKPGASVKISCKASGYAFSSSWMNWVKQRPGKGLEWIGRIYPGDGDTNYNGKFKGKATLTADKSSSTAYMQLSSLTSEDSAVYFCARRGYGYLAYWGQGTLVTVSA
VL: DIVMTQSHKFMSTSVGDRVSITCKASQDVSTAVAWYQQKPGQSPKLLIYSASYRYTGVPDRFTGSGSGTDFTFTISSVQAEDLAVYYCQQHYSTPWTFGGGTKLEIK
B4: 16F10 (antibody, IgG1, V domains shown)
VH: DVQLQESGPGLVKPSQSLSLTCSVTGYSITSGYYWNWIRQFPGNKLEWMGYISYDGSNNYNPSLKNRISITRDTSKNQFFLKLNSVTTEDTATYYCASIYGNYYAMDYWGQGTSVTVSS
VL: QIVLTQSPAIMSASPGEKVTMTCSASSSVSYMHWYQQKSGTSPKRWIYDTSKLASGVPARFSGSGSGTSYSLTISSMEAEDAATYYCQQWSSNPPTFGSGTKLEIK
B5: 15C6 (antibody, IgG1, V domains shown)
VH: QVQLQQSGPELVKPGASVKISCKASGYAFSSSWMNWVKQRPGKGLEWIGRIYPGDGDTNYNGKFKGKATLTADKSSSTAYMQLSSLTSEDSAVYFCARRGYGYLAYWGQGTLVTVSA
VL: DIVMTQSHKFMSTSVGDRVSITCKASQDVSTAVAWYQQKPGQSPKLLIYSASYRYTGVPDRFTGSGSGTDFTFTISSVQAEDLAVYYCQQHYSTPYTFGGGTKLEIK
B6: 12F11 (antibody, IgG1, V domains shown)
VH: EVQLQQSGPELVKPGASVKISCKASGYTFTDYYMNWVKQSHGKSLEWIGDINPNNGGTSYNQKFKGKATLTVDKSSSTAYMELRSLTSEDSAVYYCARWRQLRSDYWGQGTTLTVSS
VL: DIQMTQSPASQSASLGESVTITCLASQTIGTWLAWYQQKPGKSPQLLIYAATSLADGVPSRFSGSGSGTKFSFKISSLQAEDFVSYYCQQLYSTPLTFGAGTKLELK
B7: 4D5 (antibody, IgG1, V domains shown)
VH: QIQLVQSGPELKKPGETVKISCKASGYTFTTYGVSWVKQAPGKVLKWMGWINTYSGVPTYADDFKGRFAFSLETSASTAYLQISNLKNEDTATYFCAPVTTILHWYFDVWGTGTTVTVSS
VL: DIQMTQSPSSLSASLGERVSLTCRASQEISGYLSWLQQKPDGTIKRLIYAASTLDSGVPKRFRGSRSGSDYSLTISSLESEDFADYYCLQYASYPFTFGSGTKLEIK
B8: 3A9 (antibody, IgG1, V domains shown)
VH: QVQLKQSGAELVRPGASVKLSCKASGYTFTDYYINWVKQRPGQGLEWIARIYPGSGNTYYNEKFKGKATLTAEKSSSTAYMQLSSLTSEDSAVYFCARGYGNSDYWGQGTTLTVSS
VL: DILLTQSPAILSVSPGERVSFSCRASQSIGTRIHWYQQRTNGSPRLLIKYASESISGIPSRFSGSGSGTDFTLSINSVESEDIADYYCQQSNSWPYTFGGGTKLEIK
B9: 24H7 (antibody, IgG1, V domains shown)
VH: QVQLQQSGAELVRPGASVTLSCKASGYTFTDYEIHWVKQTLVHGLEWIGPIDPDTGNTAYNQNLKGKAILTADKSSSTAYMELRSLTSEDSAVYYCTRGGYDSDWGFAYWGQGTLVTVSA
VL: DIVMTQATPSVPVTPGESVSISCRSSKSLLHSNGNTFLFWFLQRPGQSPQLLIYRMSDLASGVPDRFSGSGSGTAFTLRISRVEAEDVGIYYCMQHLEYPFTFGSGTKLEIK
B10: 4B1 (antibody, IgG1, V domains shown)
VH: QVQLQQSGAELARPGASVRLSCKASGYTFTSYGLIWLKQRTGQGLEWIGEIYPRSGSTYYNEWFKGKATLTADKSSNTAFMELRSLTSEDSAVYFCARRRGTGDGFDYWGQGTILTVSS
VL: DIQMTQTTSSLSASLGDRVTISCSASQGISNYLNWYQQKPDGTVKLLIYYTSSLHSGVPSRFSGSGSGTDYSLTISNLEPEDIATYYCQQYIELPFTFGSGTKLEIK
B11: 8B4 (antibody, IgG1, V domains shown)
VH: QVQLQQSGAELARPGASVKLPCKASGYTFTSYGISWVKQRTGQGLEWIGEIYPRSGTTYYNEKFKGKATLTADKSSSTAYMELRSLTSEDSAVYFCARRISSGSGVDYWGQGTTLTVSS
VL: DIQMTQTTSSLSASLGDRVTISCSASQGISNYLNWYQQKPDGTVKLLIYYTSSLHSGVPSRFSGSGSGTDYSLTISNLEPEDIATYYCQQYSELPWTFGGGTKLEIK
B12: 4H4 (antibody, IgG1, V domains shown)
VH: QVQLQQSGAELARPGASVKLSCKASGYTFTSYGISWVKQRTGQGLEWIGEIYPRSGNTYYNEKFKGKATLTADKSSSTAYMELRSLTSEDSAVYFCARRRGAGDGFDYWGQGTTLTVSS
VL: DIQMTQTTSSLSASLGDRVTISCSASQGISNYLNWYQQKPDGTVKLLIYYTSSLHSGVPSRFSGSGSGTDYSLTISNLEPEDIATYYCQQYSKLPFTFGSGTKLEIK
B13: 21C7 (antibody, IgG1, V domains shown)
VH: QIQLQQSGPELVKPGASVKISCKASGYAFSSSWMNWVKKRPGKGLEWIGRIYPGDGDANYNGKFKGKATLTADKSSSTAYMQLSSLTSEDSAVYFCAGEGHYYGSGYRWYLDVWGTGTTVTVSS
VL: DIQMTQSPASLSVSVGETVTITCRASENIYSNLAWYQQKQGKSPQLLVYAATNLADGVPSRFSGSGSGTQYSLKINSLQSEDFGSYYCQHFRGAPFTFGSGTKLEIK

Each binder was assayed against human BTLA extracellular region with the transmembrane and intracellular regions of murine CD28, wild type, on HEK-293T cells (human; mouse) (UniProt P31041) (assay: flow cytometry on HEK-293T cells with BTLA constructs).

binding, binds:
B1
B2
B3
B4
B5
B6
B7
B8
B9
B10
B11
B12
B13
